Laboratory results: patent publication US8445005B2, “Antiwrinkle agent, lipolysis promoter, external composition for skin and food and beverage composition” (Kao Corporation, priority 2004, dated 2013)

Test: Sensory evaluation of pungent (spicy) flavor
Set-up: key to Spicy flavor at evaluated concentration: +++: Extremely potent spicy flavor; ++: Very spicy flavor; +: Somewhat spicy flavor; ±: Slight spicy flavor; −: No spicy flavor
Conditions: for Threshold value (concentration at which pungent flavor is perceived): diluted with distilled water, tested from the lowest concentration

| Structure (SMILES) | Spicy flavor at evaluated concentration (10^−3 mol/L in distilled water) | Spicy flavor at evaluated concentration (10^−4 mol/L in distilled water) | Spicy flavor at evaluated concentration (10^−5 mol/L in distilled water) | Spicy flavor at evaluated concentration (10^−6 mol/L in distilled water) | Spicy flavor at evaluated concentration (10^−7 mol/L in distilled water) | Spicy flavor at evaluated concentration (10^−8 mol/L in distilled water) | Threshold value (concentration at which pungent flavor is perceived) |
| --- | --- | --- | --- | --- | --- | --- | --- |
| COc1cc(CNC(=O)CCCC/C=C/C(C)C)ccc1O [Capsaicin] | +++ | ++ | + | ± | ± | − | about 10^−7 mol/L |
| CCCCCCCC(=O)CCc1ccc(O)c(OC)c1 [Paradol, 1-(4′-hydroxy-3′-methoxyphenyl)-3-decanone] | + | ± | − | − | − | − | 10^−4 mol/L |
